Experimental data from article PMC12482187.

Protein sequences, listed by entry. Tags and fused reporters are not part of them. Lines headed by an entry give the natural chain unless they say otherwise; changes in a name come on top.
UniProt Q2LKW8: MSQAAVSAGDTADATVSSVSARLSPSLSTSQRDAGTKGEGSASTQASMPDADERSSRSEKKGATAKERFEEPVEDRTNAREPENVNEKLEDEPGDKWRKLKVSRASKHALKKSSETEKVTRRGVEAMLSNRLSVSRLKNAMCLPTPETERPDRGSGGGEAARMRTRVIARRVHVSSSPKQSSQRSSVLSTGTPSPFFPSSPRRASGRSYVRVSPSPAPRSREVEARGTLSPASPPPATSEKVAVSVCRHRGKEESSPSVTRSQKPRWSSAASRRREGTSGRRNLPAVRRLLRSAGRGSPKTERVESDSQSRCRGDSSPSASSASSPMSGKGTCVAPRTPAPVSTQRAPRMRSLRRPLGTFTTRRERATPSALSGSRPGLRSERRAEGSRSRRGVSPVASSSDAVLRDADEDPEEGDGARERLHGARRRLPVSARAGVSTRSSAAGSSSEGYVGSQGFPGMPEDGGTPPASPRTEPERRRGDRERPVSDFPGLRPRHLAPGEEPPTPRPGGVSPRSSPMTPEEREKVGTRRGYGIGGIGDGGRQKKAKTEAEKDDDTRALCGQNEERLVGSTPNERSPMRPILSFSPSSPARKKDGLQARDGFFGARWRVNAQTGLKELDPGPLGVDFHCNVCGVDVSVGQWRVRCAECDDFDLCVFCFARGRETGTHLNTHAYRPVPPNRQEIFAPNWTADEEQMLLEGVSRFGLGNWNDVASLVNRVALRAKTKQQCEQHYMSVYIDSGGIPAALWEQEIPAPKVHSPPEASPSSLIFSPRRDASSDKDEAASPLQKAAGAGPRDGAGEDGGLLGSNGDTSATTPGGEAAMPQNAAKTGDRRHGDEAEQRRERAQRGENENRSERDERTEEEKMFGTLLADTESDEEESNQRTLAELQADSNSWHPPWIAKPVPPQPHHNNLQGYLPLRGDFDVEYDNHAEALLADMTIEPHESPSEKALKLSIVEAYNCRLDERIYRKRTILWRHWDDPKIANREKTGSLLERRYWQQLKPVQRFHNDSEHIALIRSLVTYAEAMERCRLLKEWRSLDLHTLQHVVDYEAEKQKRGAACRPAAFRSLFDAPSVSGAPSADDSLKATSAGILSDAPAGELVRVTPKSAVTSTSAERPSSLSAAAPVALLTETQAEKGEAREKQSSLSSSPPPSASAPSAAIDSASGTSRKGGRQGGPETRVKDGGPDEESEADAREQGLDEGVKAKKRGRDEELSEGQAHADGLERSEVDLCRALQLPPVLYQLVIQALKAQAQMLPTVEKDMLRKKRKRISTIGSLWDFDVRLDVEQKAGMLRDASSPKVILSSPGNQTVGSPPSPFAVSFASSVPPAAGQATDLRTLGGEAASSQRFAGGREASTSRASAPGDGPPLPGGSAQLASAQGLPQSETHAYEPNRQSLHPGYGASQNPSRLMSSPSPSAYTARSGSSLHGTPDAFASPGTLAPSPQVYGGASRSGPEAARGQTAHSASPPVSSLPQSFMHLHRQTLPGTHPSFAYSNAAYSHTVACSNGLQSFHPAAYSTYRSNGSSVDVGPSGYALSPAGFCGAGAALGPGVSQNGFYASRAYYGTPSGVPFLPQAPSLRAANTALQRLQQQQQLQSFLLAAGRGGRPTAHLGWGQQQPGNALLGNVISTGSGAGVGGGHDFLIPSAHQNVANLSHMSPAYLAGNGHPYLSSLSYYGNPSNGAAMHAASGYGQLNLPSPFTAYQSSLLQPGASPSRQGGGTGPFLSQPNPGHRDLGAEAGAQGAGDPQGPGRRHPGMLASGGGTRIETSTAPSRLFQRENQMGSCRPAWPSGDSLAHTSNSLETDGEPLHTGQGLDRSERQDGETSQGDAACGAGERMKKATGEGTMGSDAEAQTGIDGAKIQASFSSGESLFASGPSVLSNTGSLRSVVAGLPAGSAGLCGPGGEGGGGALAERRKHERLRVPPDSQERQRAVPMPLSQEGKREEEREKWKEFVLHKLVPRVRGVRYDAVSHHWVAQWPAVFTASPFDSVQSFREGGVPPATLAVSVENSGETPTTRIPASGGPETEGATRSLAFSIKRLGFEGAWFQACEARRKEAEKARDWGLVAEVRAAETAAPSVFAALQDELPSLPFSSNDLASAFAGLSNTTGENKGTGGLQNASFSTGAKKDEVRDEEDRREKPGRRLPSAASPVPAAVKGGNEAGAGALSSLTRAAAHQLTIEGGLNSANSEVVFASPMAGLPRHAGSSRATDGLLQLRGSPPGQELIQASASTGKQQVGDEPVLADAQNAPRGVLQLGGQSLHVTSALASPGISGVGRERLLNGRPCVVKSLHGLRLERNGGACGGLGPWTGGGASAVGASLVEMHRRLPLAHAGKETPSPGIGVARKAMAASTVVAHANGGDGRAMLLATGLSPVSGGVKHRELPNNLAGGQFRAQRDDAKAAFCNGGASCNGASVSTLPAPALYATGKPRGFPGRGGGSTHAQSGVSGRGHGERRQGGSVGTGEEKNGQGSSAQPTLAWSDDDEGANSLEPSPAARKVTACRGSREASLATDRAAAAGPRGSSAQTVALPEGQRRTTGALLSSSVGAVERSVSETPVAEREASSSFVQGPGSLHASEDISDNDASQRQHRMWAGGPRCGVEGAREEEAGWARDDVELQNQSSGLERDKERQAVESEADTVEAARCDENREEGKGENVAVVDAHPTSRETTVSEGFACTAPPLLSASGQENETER

target: T1, GCN5a^HA (lysine acetyltransferase GCN5a, endogenously tagged with 3xHA, Pru strain) (Toxoplasma gondii (endogenous in Pru strain parasites)) (UniProt S8GIK3); test: affinity purification with mass spectrometry; single pull-down (co-IP) from Pru GCN5a^HA parasites after 48 h alkaline stress; low peptide yields, called a preliminary account
T1 sequence: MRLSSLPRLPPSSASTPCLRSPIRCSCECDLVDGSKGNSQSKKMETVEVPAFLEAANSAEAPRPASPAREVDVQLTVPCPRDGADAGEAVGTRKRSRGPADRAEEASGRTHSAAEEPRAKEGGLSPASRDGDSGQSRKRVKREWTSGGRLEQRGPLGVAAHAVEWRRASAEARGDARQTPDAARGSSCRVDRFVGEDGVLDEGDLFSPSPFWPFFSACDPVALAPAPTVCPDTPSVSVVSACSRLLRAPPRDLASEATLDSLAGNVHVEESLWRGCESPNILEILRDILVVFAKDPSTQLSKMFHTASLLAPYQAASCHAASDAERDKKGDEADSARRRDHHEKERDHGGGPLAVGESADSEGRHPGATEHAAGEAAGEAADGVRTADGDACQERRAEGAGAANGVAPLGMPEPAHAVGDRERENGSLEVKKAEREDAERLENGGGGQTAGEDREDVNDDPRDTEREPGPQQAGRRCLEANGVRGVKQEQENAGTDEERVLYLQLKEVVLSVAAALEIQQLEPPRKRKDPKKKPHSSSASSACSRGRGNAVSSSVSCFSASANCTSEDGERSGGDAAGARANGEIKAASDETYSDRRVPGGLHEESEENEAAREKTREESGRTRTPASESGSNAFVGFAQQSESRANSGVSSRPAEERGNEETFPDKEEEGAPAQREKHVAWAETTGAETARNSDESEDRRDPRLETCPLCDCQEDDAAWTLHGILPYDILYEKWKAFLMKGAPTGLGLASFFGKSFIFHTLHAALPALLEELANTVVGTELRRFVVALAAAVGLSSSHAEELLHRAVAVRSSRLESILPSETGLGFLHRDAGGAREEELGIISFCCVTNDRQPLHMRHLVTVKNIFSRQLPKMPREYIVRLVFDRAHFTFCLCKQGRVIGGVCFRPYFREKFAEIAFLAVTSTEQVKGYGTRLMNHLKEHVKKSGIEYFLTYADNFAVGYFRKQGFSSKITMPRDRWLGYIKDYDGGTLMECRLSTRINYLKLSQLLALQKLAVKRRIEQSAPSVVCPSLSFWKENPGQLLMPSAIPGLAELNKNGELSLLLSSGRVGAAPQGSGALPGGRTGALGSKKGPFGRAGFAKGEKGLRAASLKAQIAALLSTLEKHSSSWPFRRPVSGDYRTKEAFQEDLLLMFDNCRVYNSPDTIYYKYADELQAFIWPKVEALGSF

Substance | binding
AP2V-1, Pru strain | binds
AP2XII-4, Pru strain | binds
AP2VIIb-1/ADA2-B, Pru strain | binds
PHD-finger domain-containing protein (TGGT1_234900), Pru strain | binds
AP2X-5, Pru strain | binds

target: T2, GCN5a^HA (lysine acetyltransferase GCN5a, endogenously tagged with 3xHA, RH strain) (Toxoplasma gondii (endogenous in RH strain parasites)) (UniProt S8GIK3); test: affinity purification with mass spectrometry; RH-GCN5a^HA parasites, no stress or 48 h alkaline stress, three biological replicates each; whole cell lysate (50 mM Tris-HCl pH 7.4, 150 mM NaCl, 1 mM MgCl2, 0.5% NP-40, 10% glycerol), precleared with mouse IgG beads, anti-HA magnetic beads overnight at 4°C; untagged RH parasites as control; hits not detected in the parental strain and with at least five peptides in two of three replicates
T2 sequence: T1 sequence

Substance | binding
AP2X-5, RH strain | binds
AP2VIIb-1/ADA2-B, RH strain (from UniProt Q2LKW8) | binds
AP2V-1, RH strain | binds
PHD-finger domain-containing protein (TGGT1_234900), RH strain | binds
AP2XII-4, RH strain | binds

These are yes or no findings as the source states them, for the method shown. In cells and extracts the contact can be indirect. These calls come from enrichment with a bait or labelling near it, and not all partners need be listed. Sequences can lack the tags named with a protein.
